# Data from patent US20260266848A1, “COMPOSITIONS AND METHODS FOR DIAGNOSING AND TREATING DYSTONIA” (Duke University, priority 2023, published 2026).
# B1: ADAP2 (protein, UniProt Q9NPF8 1-381, looked up)
# Arf-GAP with dual PH …: MGDRERNKKRLLELLRAPDTGNAHCADCGAADPDWASYKLGIFICLNCCGVHRNFPDISRVKSVRLDFWDDSIVEFMIHNGNLRVKAKFEARVPAFYYIPQANDCLVLKEQWIRAKYERREFMADGETISLPGNREGFLWKRGRDNSQFLRRKFVLLAREGLLKYFTKEQGKSPKAVISIKDLNATFQTEKIGHPHGLQITYRRDGHTRNLFVYHESGKEIVDWFNALRAARLQYLKMAFPELPESELVPFLTRNYLKQGFMEKTGPKQKEPFKKRWFALDCHERRLLYYKNPLDAFEQGQVFLGNKEQGYEAYEDLPKGIRGNRWKAGLTIVTPERRFVLTCPSEKEQQEWLESLRGVLSSPLTPLNRLTASTESGRSSR
# B2: HNRNPC (protein, UniProt P07910 2-306, looked up)
# Heterogeneous nuclear …: ASNVTNKTDPRSMNSRVFIGNLNTLVVKKSDVEAIFSKYGKIVGCSVHKGFAFVQYVNERNARAAVAGEDGRMIAGQVLDINLAAEPKVNRGKAGVKRSAAEMYGSVTEHPSPSPLLSSSFDLDYDFQRDYYDRMYSYPARVPPPPPIARAVVPSKRQRVSGNTSRRGKSGFNSKSGQRGSSKSGKLKGDDLQAIKKELTQIKQKVDSLLENLEKIEKEQSKQAVEMKNDKSEEEQSSSSVKKDETNVKMESEGGADDSAEEGDLLDDDDNEDRGDDQLELIKDDEKEAEEGEDDRDSANGEDDS
# B3: MFAP5 (protein, UniProt Q13361 22-173, looked up)
# Microfibrillar-associated …: IPLGVNSQRGDDVTQATPETFTEDPNLVNDPATDETVLAVLADIAPSTDDLASLSEKNTTAECWDEKFTCTRLYSVHRPVKQCIHQLCFTSLRRMYIVNKEICSRLVCKEHEAMKDELCRQMAGLPPRRLRRSNYFRLPPCENVDLQRPNGL
# B4: GART (protein, UniProt P22102 2-1010, looked up)
# Trifunctional purine …: AARVLIIGSGGREHTLAWKLAQSHHVKQVLVAPGNAGTACSEKISNTAISISDHTALAQFCKEKKIEFVVVGPEAPLAAGIVGNLRSAGVQCFGPTAEAAQLESSKRFAKEFMDRHGIPTAQWKAFTKPEEACSFILSADFPALVVKASGLAAGKGVIVAKSKEEACKAVQEIMQEKAFGAAGETIVIEELLDGEEVSCLCFTDGKTVAPMPPAQDHKRLLEGDGGPNTGGMGAYCPAPQVSNDLLLKIKDTVLQRTVDGMQQEGTPYTGILYAGIMLTKNGPKVLEFNCRFGDPECQVILPLLKSDLYEVIQSTLDGLLCTSLPVWLENHTALTVVMASKGYPGDYTKGVEITGFPEAQALGLEVFHAGTALKNGKVVTHGGRVLAVTAIRENLISALEEAKKGLAAIKFEGAIYRKDVGFRAIAFLQQPRSLTYKESGVDIAAGNMLVKKIQPLAKATSRSGCKVDLGGFAGLFDLKAAGFKDPLLASGTDGVGTKLKIAQLCNKHDTIGQDLVAMCVNDILAQGAEPLFFLDYFSCGKLDLSVTEAVVAGIAKACGKAGCALLGGETAEMPDMYPPGEYDLAGFAVGAMERDQKLPHLERITEGDVVVGIASSGLHSNGFSLVRKIVAKSSLQYSSPAPDGCGDQTLGDLLLTPTRIYSHSLLPVLRSGHVKAFAHITGGGLLENIPRVLPEKLGVDLDAQTWRIPRVFSWLQQEGHLSEEEMARTFNCGVGAVLVVSKEQTEQILRDIQQHKEEAWVIGSVVARAEGSPRVKVKNLIESMQINGSVLKNGSLTNHFSFEKKKARVAVLISGTGSNLQALIDSTREPNSSAQIDIVISNKAAVAGLDKAERAGIPTRVINHKLYKNRVEFDSAIDLVLEEFSIDIVCLAGFMRILSGPFVQKWNGKMLNIHPSLLPSFKGSNAHEQALETGVTVTGCTVHFVAEDVDAGQIILQEAVPVKRGDTVATLSERVKLAEHKIFPAALQLVASGTVQLGENGKICWVKEE
# B5: BZW2 (protein, UniProt Q9Y6E2 1-419, looked up)
# eIF5-mimic protein 1: MNKHQKPVLTGQRFKTRKRDEKEKFEPTVFRDTLVQGLNEAGDDLEAVAKFLDSTGSRLDYRRYADTLFDILVAGSMLAPGGTRIDDGDKTKMTNHCVFSANEDHETIRNYAQVFNKLIRRYKYLEKAFEDEMKKLLLFLKAFSETEQTKLAMLSGILLGNGTLPATILTSLFTDSLVKEGIAASFAVKLFKAWMAEKDANSVTSSLRKANLDKRLLELFPVNRQSVDHFAKYFTDAGLKELSDFLRVQQSLGTRKELQKELQERLSQECPIKEVVLYVKEEMKRNDLPETAVIGLLWTCIMNAVEWNKKEELVAEQALKHLKQYAPLLAVFSSQGQSELILLQKVQEYCYDNIHFMKAFQKIVVLFYKADVLSEEAILKWYKEAHVAKGKSVFLDQMKKFVEWLQNAEEESESEGEEN
# B6: LIPG (protein, UniProt Q9Y5X9 21-500, looked up)
# Endothelial lipase: SPVPFGPEGRLEDKLHKPKATQTEVKPSVRFNLRTSKDPEHEGCYLSVGHSQPLEDCSFNMTAKTFFIIHGWTMSGIFENWLHKLVSALHTREKDANVVVVDWLPLAHQLYTDAVNNTRVVGHSIARMLDWLQEKDDFSLGNVHLIGYSLGAHVAGYAGNFVKGTVGRITGLDPAGPMFEGADIHKRLSPDDADFVDVLHTYTRSFGLSIGIQMPVGHIDIYPNGGDFQPGCGLNDVLGSIAYGTITEVVKCEHERAVHLFVDSLVNQDKPSFAFQCTDSNRFKKGICLSCRKNRCNSIGYNAKKMRNKRNSKMYLKTRAGMPFRVYHYQMKIHVFSYKNMGEIEPTFYVTLYGTNADSQTLPLEIVERIEQNATNTFLVYTEEDLGDLLKIQLTWEGASQSWYNLWKEFRSYLSQPRNPGRELNIRRIRVKSGETQRKLTFCTEDPENTSISPGRELWFRKCRDGWRMKNETSPTVELP
# B7: NDNF (protein, UniProt Q8TB73 20-568, looked up)
# Protein NDNF: QKLPTRDEELFQMQIRDKAFFHDSSVIPDGAEISSYLFRDTPKRYFFVVEEDNTPLSVTVTPCDAPLEWKLSLQELPEDRSGEGSGDLEPLEQQKQQIINEEGTELFSYKGNDVEYFISSSSPSGLYQLDLLSTEKDTHFKVYATTTPESDQPYPELPYDPRVDVTSLGRTTVTLAWKPSPTASLLKQPIQYCVVINKEHNFKSLCAVEAKLSADDAFMMAPKPGLDFSPFDFAHFGFPSDNSGKERSFQAKPSPKLGRHVYSRPKVDIQKICIGNKNIFTVSDLKPDTQYYFDVFVVNINSNMSTAYVGTFARTKEEAKQKTVELKDGKITDVFVKRKGAKFLRFAPVSSHQKVTFFIHSCLDAVQIQVRRDGKLLLSQNVEGIQQFQLRGKPKAKYLVRLKGNKKGASMLKILATTRPTKQSFPSLPEDTRIKAFDKLRTCSSATVAWLGTQERNKFCIYKKEVDDNYNEDQKKREQNQCLGPDIRKKSEKVLCKYFHSQNLQKAVTTETIKGLQPGKSYLLDVYVIGHGGHSVKYQSKVVKTRKFC
# B8: RNF39 (protein, UniProt Q9H2S5 1-420, looked up)
# RING finger protein 39: MWWRDLTRLRLWLKREAIPGEGRKAAKVNAGVGEKGIYTASSRGGPPSARSKAVTVVAEGAASRSWLSMDAPELGPGLVERLEQLATCPLCGGSFEDPVLLACEHSFCRACLARRWGTPPATGTEASPTACPCCGLPCPRRSLRSNVRLAVEVRISRELREKLAEPGARAGRRRGGRIPTMGCLDLPGEDMRKTWRRFEVPTSKSSNSEDDLPEDYPVVKKMLHRLTADLTLDPGTAHRRLLISADRRSVQLAPPGTPAPPDGPKRFDQLPAVLGAQGFGAGRHCWEVETADAASCRDSSGEDADDEESHYAVGAAGESVQRKGCVRLCPAGAVWAVEGRGGRLWALTAPEPTLLGGVEPPPRRIRVDLDWERGRVAFYDGRSLDLLYAFQAPGPLGERIFPLFCTCDPRAPLRIVPAES
# B9: TOR3A (protein, UniProt Q9H497 26-397, looked up)
# Torsin-3A: ASRPWEGTDEPGSAWAWPGFQRLQEQLRAAGALSKRYWTLFSCQVWPDDCDEDEEAATGPLGWRLPLLGQRYLDLLTTWYCSFKDCCPRGDCRISNNFTGLEWDLNVRLHGQHLVQQLVLRTVRGYLETPQPEKALALSFHGWSGTGKNFVARMLVENLYRDGLMSDCVRMFIATFHFPHPKYVDLYKEQLMSQIRETQQLCHQTLFIFDEAEKLHPGLLEVLGPHLERRAPEGHRAESPWTIFLFLSNLRGDIINEVVLKLLKAGWSREEITMEHLEPHLQAEIVETIDNGFGHSRLVKENLIDYFIPFLPLEYRHVRLCARDAFLSQELLYKEETLDEIAQMMVYVPKEEQLFSSQGCKSISQRINYFLS
# B10: MUCL1 (protein, UniProt Q96DR8 21-90, looked up)
# Mucin-like protein 1: NPTTAAPADTYPATGPADDEAPDAETTAAATTATTAAPTTATTAASTTARKDIPVLPKWVGDLPNGRVCP
# B11: ACOX3 (protein, UniProt O15254 2-700, looked up)
# Peroxisomal acyl-coenzyme A …: ASTVEGGDTALLPEFPRGPLDAYRARASFSWKELALFTEGEGMLRFKKTIFSALENDPLFARSPGADLSLEKYRELNFLRCKRIFEYDFLSVEDMFKSPLKVPALIQCLGMYDSSLAAKYLLHSLVFGSAVYSSGSERHLTYIQKIFRMEIFGCFALTELSHGSNTKAIRTTAHYDPATEEFIIHSPDFEAAKFWVGNMGKTATHAVVFAKLCVPGDQCHGLHPFIVQIRDPKTLLPMPGVMVGDIGKKLGQNGLDNGFAMFHKVRVPRQSLLNRMGDVTPEGTYVSPFKDVRQRFGASLGSLSSGRVSIVSLAILNLKLAVAIALRFSATRRQFGPTEEEEIPVLEYPMQQWRLLPYLAAVYALDHFSKSLFLDLVELQRGLASGDRSARQAELGREIHALASASKPLASWTTQQGIQECREACGGHGYLAMNRLGVLRDDNDPNCTYEGDNNILLQQTSNYLLGLLAHQVHDGACFRSPLKSVDFLDAYPGILDQKFEVSSVADCLDSAVALAAYKWLVCYLLRETYQKLNQEKRSGSSDFEARNKCQVSHGRPLALAFVELTVVQRFHEHVHQPSVPPSLRAVLGRLSALYALWSLSRHAALLYRGGYFSGEQAGEVLESAVLALCSQLKDDAVALVDVIAPPDFVLDSPIGRADGELYKNLWGAVLQESKVLERASWWPEFSVNKPVIGSLKSKL
# Tested on: DYT1 patient plasma derived EVs
# Experiment: Plasma-derived EV proteomics (ExoQuick ULTRA, DIA LC/MS/MS), DYT1 vs Healthy Controls
# Design: species or system human
# Conditions: DYT1 patients as compared to healthy controls
# Outline: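 Plasma EVs enriched with ExoQuick ULTRA; 500 ng per sample run on EvoSep One UPLC (SPD30 gradient, ~5–30% acetonitrile/0.1% formic acid, 50 C) coupled to Orbitrap Astral. DIA mode: full MS r=240,000, m/z 380-980; 4 m/z fixed windows, HCD 27%.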
row,Molecule,Log2FC
1,B1,−0.2459
2,B2,−0.7428
3,B3,1.3666

# Same assay, conditions: Hs. Plasma EVs (DYT1/WT)
row,Molecule,Directionality
1,B4,DOWN
2,B2,DOWN
3,B5,DOWN
4,B6,DOWN

# Same assay, conditions: Hs. Plasma EVs (DYT1/WT); protein level, human patient derived EVs by genotype
row,Molecule,Log2_FC
1,B4,-0.918
2,B7,1.84
3,B2,-0.7428
4,B5,-0.7772
5,B6,-0.982

# Same assay, conditions: directionality of protein change, human plasma derived EVs, DYT1 vs WT(HC)
row,Molecule,Hs. Plasma EVs (DYT1/WT)
1,B4,DOWN
2,B2,DOWN
3,B5,DOWN
4,B6,DOWN

# Same assay, conditions: protein abundance, DYT1 patients
row,Molecule,Mean DYT1
1,B4,3.587
2,B7,4.696
3,B8,2.632
4,B1,11.456
5,B2,7.723
6,B5,3.536
7,B9,8.654
8,B6,5.060
9,B10,6.887
10,B3,5.634
11,B11,4.229

# Same assay, conditions: protein abundance, healthy controls (HC)
row,Molecule,Mean HC
1,B4,4.51
2,B7,2.86
3,B8,3.37
4,B1,11.70
5,B2,8.47
6,B5,4.31
7,B9,8.16
8,B6,6.04
9,B10,7.72
10,B3,4.27
11,B11,4.92
